{"source": "PubChem BioAssay AID504834", "about": "(National Center for Advancing Translational Sciences (NCATS), 2011)", "note": "Among all 320,000 compounds or so, about 22,000 (6.9%) were called active. Inconclusive means that the source gave no clear call. Such entries were picked first, then a sample of the others. Calls come from the whole dose curve; as a rule, active = well fitted inhibition curve with a large enough effect; inconclusive = small, poorly fitted or top-dose-only effect, or another doubt; inactive = no such curve, though single readings can be large or run the other way. Where the call is inconclusive, the potency comes from a doubtful curve fit. Potency is the fitted concentration of half-maximal effect.", "data": [{"assay": "Primary qHTS for delayed death inhibitors of the malarial parasite plastid, 96 hour incubation", "conditions": "P. falciparum luciferase reporter growth; series mostly up to 28.7 µM", "outline": "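Parasite growth measured via integrated firefly luciferase reporter in P. falciparum. Infected erythrocytes at 2% hematocrit, 0.05% parasitemia final were treated 96 hours at 37 C under 5% CO2, and luminescence was read.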", "values": [{"compound": "CCOc1ccccc1C(=O)NCC(=O)OCCOc1cccc(Cl)c1", "Potency": "inconclusive: 0.37 µM [inhibitor, partial curve, poor fit]"}, {"compound": "Cc1sc2nc[nH]c(=O)c2c1-c1ccc(Cl)cc1", "Potency": "inconclusive: 0.0657 µM [inhibitor, full curve, poor fit]"}, {"compound": "CC(C)CC(=O)/C(=C\\c1ccc(Cl)cc1Cl)n1cncn1", "Potency": "inconclusive: 18.5 µM [inhibitor, single point]"}, {"compound": "COCCN(C(=O)Cc1cccs1)c1nnc(-c2ccncc2)s1", "Potency": "inconclusive: 0.928 µM [inhibitor, partial curve, poor fit]"}, {"compound": "CC1CCc2c(sc(NC(=O)CSc3nc4c(c(C(F)(F)F)n3)CCc3ccccc3-4)c2C(N)=O)C1", "note": "(configuration not stated)", "Potency": "inconclusive: 18.5 µM [inhibitor, single point]"}, {"compound": "COc1ccc(N2CCN(S(=O)(=O)c3ccc4c(c3)NC(=O)CC(=O)N4)CC2)cc1", "Potency": "inconclusive: 8.28 µM [inhibitor, partial curve, poor fit]"}, {"compound": "C=C(C)Cn1c(=O)c2c(nc3n2CCN3c2cccc(Cl)c2C)n(C)c1=O", "Potency": "inconclusive: 18.5 µM [inhibitor, partial curve, poor fit]"}, {"compound": "CCN(Cc1ccncc1)C(=O)c1cc(COc2ccc(F)cc2Cl)on1", "Potency": "inconclusive: 10.4 µM [inhibitor, single point]"}, {"compound": "CC(C)CN(C(=O)CN1C(=O)C2CCCCC2C1=O)c1c(N)n(Cc2ccccc2)c(=O)[nH]c1=O", "note": "(configuration not stated)", "Potency": "inconclusive: 20.8 µM [inhibitor, partial curve, poor fit]"}, {"compound": "Cc1ccc(Cn2nnnc2CN2CCC(NC(=O)C(C)(C)C)CC2)cc1", "Potency": "inactive"}, {"compound": "CCOC(=O)c1c(CN2CCN(Cc3ccccc3)CC2)n(C)c2cc(Br)c(OC)cc12", "Potency": "inconclusive: 1.85 µM [inhibitor, full curve, poor fit]"}, {"compound": "COc1ccccc1Oc1c(C)oc2cc(OC(=O)c3ccco3)ccc2c1=O", "Potency": "inactive"}, {"compound": "CC(C)COc1ccc(C(=O)Nc2ccc(N3CCOCC3)cc2N2CCOCC2)cc1", "Potency": "inconclusive: 14.7 µM [inhibitor, single point]"}, {"compound": "COc1ccc(NS(=O)(=O)c2cccc(C(=O)NCC(c3ccco3)N3CCCC3)c2)cc1", "note": "(configuration not stated)", "Potency": "active: 14.7 µM"}, {"compound": "Cc1ccc2[nH]c(O)c(N=NC(=O)CCc3ccccc3)c2c1Br", "Potency": "inactive"}, {"compound": "CC(=O)Nc1ccc(S(=O)(=O)NCCc2csc(-c3cccnc3)n2)cc1", "Potency": "active: 8.28 µM"}, {"compound": "CCOC(=O)Cc1csc(SCC(=O)Nc2sc3c(c2C(N)=O)CCC3)n1", "Potency": "inconclusive: 5.86 µM [inhibitor, partial curve, poor fit]"}, {"compound": "COC(=O)c1cc2ccsc2n1CC(=O)Nc1cc(C)cc(C)c1", "Potency": "inconclusive: 10.4 µM [inhibitor, single point]"}, {"compound": "Cc1cc(C(=O)OCC(=O)NC2CC2)c2ccccc2n1", "Potency": "inactive"}, {"compound": "CCn1ccnc1C(O)c1ccc(N(C)C)cc1", "note": "(configuration not stated)", "Potency": "inactive"}, {"compound": "Cc1nnc(SCC(=O)NC2CCS(=O)(=O)C2)n1-c1ccccc1", "note": "(configuration not stated)", "Potency": "inconclusive: 10.4 µM [inhibitor, single point]"}, {"compound": "COc1cc2c(cc1OC)C(C)N(C(=O)C1=NN(c3cccc(C)c3)C(=O)CC1)CC2", "note": "(configuration not stated)", "Potency": "inconclusive: 7.38 µM [inhibitor, partial curve]"}, {"compound": "CCCCOC(=O)N/N=C/C=C/c1ccccc1", "Potency": "inconclusive: 18.5 µM [inhibitor, single point]"}, {"compound": "Cc1cc2c(cc1S(=O)(=O)N1CCCCC1)OCC(=O)N2", "Potency": "inconclusive: 0.0037 µM [inhibitor, full curve, poor fit]"}, {"compound": "CC1CCN(CCCN2C(=O)C3C(C(=O)Nc4cccc(Cl)c4)C4C=CC3(O4)C2C(=O)NC2CCCCC2)CC1", "note": "(configuration not stated)", "Potency": "inconclusive: 7.38 µM [inhibitor, partial curve]"}, {"compound": "CCN(CC)S(=O)(=O)c1ccc(-c2cn3ccc(C)cc3n2)cc1", "Potency": "inconclusive: 0.0037 µM [inhibitor, full curve, poor fit]"}, {"compound": "O=C(Nc1ccc2nc(-c3ccccn3)c(-c3ccccn3)nc2c1)N1CCOCC1", "Potency": "inconclusive: 20.8 µM [inhibitor, partial curve, poor fit]"}, {"compound": "CC(C)n1c(-c2cccs2)nc2ccccc21", "Potency": "inconclusive: 0.0415 µM [inhibitor, full curve, poor fit]"}, {"compound": "Cc1ccc(CCNC(=O)CCS(=O)(=O)c2ccc3nc(C)sc3c2)cc1", "Potency": "inconclusive: 13.1 µM [inhibitor, single point]"}, {"compound": "CCOc1ccc(C(C)NC(=S)NC2CCCCC2)cc1OCC", "note": "(configuration not stated)", "Potency": "inconclusive: 0.165 µM [inhibitor, partial curve, poor fit]"}, {"compound": "Cc1cc(C)n(-c2nncc(-c3ccccc3)n2)n1", "Potency": "inactive"}, {"compound": "COc1ccccc1NC(=S)NC(C)C(c1cccs1)N1CCOCC1", "note": "(configuration not stated)", "Potency": "inconclusive: 8.28 µM [inhibitor, single point]"}, {"compound": "O=C1N(Cc2cccnc2)C[C@@H]2C[C@@H](c3cccc(Oc4ccccc4)c3)N3CCC[C@@]123", "Potency": "inconclusive: 11.7 µM [inhibitor, single point]"}, {"compound": "CN(C)S(=O)(=O)c1cccc(NC(=S)NNC(=O)c2cc3ccccc3cc2O)c1", "Potency": "inconclusive: 13.1 µM [inhibitor, single point]"}, {"compound": "Cc1ccc(S(=O)(=O)N(C)C)cc1NC(=O)CN1C(=O)NC2(CCCCCCC2)C1=O", "Potency": "inconclusive: 9.28 µM [inhibitor, single point]"}, {"compound": "CCOC(=O)c1c(NC(=O)CSc2ncccn2)sc2c1CC(C)(C)NC2(C)C", "Potency": "active: 9.28 µM"}, {"compound": "CCc1sc(N(C(=O)Cc2ccccc2)c2ccccc2F)nc1-c1ccc(C)cc1", "Potency": "active: 10.4 µM"}, {"compound": "CN1CCN(c2ccc(NC(=O)COc3ccccc3Cl)cc2)CC1", "Potency": "inactive"}, {"compound": "CCOC(=O)C1CCCN(C2CCN(Cc3nc(Cc4ccccc4)no3)CC2)C1", "note": "(configuration not stated)", "Potency": "inconclusive: 10.4 µM [inhibitor, single point]"}, {"compound": "CC(C)Oc1ccc(C(=O)NCCCNC(=O)c2cccnc2)cc1", "Potency": "inactive"}, {"compound": "O=C(Nc1ccc(Cl)cc1)Nc1ccc2c(c1)N1CCN=C1S2", "Potency": "active: 2.08 µM"}, {"compound": "O=C(Cc1ccc(NC2=NC3CS(=O)(=O)CC3S2)cc1)NCc1ccccc1", "note": "(configuration not stated)", "Potency": "inconclusive: 18.5 µM [inhibitor, single point]"}]}]}
